Each structure is given as a SMILES string. ± gives the standard deviation of the averaged measurements. Some of the results follow.

In the assay the target is T1, UniProt Q9Y232 and related entries.
T1 sequence (whole entry): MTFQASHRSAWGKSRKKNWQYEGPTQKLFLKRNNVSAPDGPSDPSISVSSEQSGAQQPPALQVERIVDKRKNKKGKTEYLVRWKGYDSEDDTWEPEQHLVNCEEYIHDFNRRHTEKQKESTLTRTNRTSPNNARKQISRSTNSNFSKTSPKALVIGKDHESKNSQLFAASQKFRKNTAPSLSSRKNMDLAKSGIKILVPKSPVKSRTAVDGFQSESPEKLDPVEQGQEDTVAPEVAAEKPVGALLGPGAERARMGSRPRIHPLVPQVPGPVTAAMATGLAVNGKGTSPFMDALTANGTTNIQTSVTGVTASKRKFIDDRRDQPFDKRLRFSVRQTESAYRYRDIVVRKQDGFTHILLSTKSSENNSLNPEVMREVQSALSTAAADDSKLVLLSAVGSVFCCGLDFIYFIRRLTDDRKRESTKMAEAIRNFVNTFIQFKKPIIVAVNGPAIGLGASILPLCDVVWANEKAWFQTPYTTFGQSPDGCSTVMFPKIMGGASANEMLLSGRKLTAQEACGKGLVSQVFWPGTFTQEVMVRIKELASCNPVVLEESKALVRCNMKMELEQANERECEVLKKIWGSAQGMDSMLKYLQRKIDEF
Description: NP40-soluble protein abundance relative to vehicle (solubility fold change) (ratio); higher = more soluble protein in presence of GTP. How it is done:
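Solubility proteome profiling in Jurkat crude lysate. Lysate was treated with Mg-GTP (0.1-10 mM) for 10 min at room temperature and 3 min at 37 °C, then solubilised with 0.8% NP40 and benzonase, followed by ultracentrifugation. Proteins were quantified by TMT10 LC-MS/MS; the value is the NP40-soluble abundance relative to the NP40-processed vehicle, from 3 independent experiments.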

Take `Nc1nc2c(ncn2[C@@H]2O[C@H](COP(=O)(O)OP(=O)(O)OP(=O)(O)O)[C@@H](O)[C@H]2O)c(=O)[nH]1` [guanosine triphosphate]: the NP40-soluble protein abundance was 0.95 ± 0.021 (concentration: 0.1mM); 0.918 ± 0.03 (concentration: 0.5mM); 1.02 ± 0.15 (concentration: 1mM); 1.04 ± 0.18 (concentration: 2mM); 1.13 ± 0.29 (concentration: 4mM); 1.07 ± 0.28 (concentration: 6mM). For the same molecule, the NP40-soluble protein abundance reads like this: (concentration: 8mM) 1.14 ± 0.32; (concentration: 10mM) 1.23 ± 0.34.

These data come from the supplement of paper PMC6411743.
